Data from paper PMC4387661.
No constants are given. Whether binding was seen depends on the method and setting. Binding seen in cells or lysates may run through a third protein.

Protein sequences, listed by entry. Tags and fused reporters are not part of them.
UniProt O54918: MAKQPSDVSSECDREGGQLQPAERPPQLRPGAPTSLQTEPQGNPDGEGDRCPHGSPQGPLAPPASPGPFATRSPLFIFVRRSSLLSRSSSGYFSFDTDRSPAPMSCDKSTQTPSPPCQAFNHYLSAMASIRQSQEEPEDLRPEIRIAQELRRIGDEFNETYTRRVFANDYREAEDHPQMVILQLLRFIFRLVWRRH

Target: T1, activating transcription factor 2 (ATF2) (mouse (endogenous in B16F10)) (UniProt P16951)
T1 sequence: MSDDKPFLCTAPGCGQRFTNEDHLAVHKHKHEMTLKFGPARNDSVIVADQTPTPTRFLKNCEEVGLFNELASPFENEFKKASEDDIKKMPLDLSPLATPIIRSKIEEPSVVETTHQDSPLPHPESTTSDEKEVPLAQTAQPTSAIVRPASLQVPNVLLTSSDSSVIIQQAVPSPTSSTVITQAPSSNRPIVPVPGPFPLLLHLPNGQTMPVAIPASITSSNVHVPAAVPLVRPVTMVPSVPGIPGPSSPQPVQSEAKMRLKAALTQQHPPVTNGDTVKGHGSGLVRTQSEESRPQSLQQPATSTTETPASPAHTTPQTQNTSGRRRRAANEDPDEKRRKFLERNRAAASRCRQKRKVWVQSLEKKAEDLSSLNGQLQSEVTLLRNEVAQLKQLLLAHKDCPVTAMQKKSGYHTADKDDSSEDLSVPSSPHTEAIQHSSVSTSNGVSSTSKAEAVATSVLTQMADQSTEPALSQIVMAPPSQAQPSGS
Test: co-IP; immunoprecipitation from B16F10 cell lysates prior to and after PTX treatment; which protein was precipitated is not told

binding: no binding
Substance: Bim (from UniProt O54918 1-196)
